Data reported in PubChem BioAssay AID2685 (National Center for Advancing Translational Sciences (NCATS), 2010).
The list shows a part of the results. The main result of the screen is listed elsewhere. These columns were measured beside it and carry no call. Compounds called inactive in the main read-out are mostly missing here. The note in brackets gives the kind of curve behind each potency; many fits are weak.

Experiment: qHTS Assay for Lipid Storage Modulators in Drosophila S3 Cells;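 as to cell number change: cells counted by Cell Tracker Red CMTPX staining in the red channel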
Conditions: BODIPY lipid droplet fluorescence, 18-24 h; for cell number change: measured here: cell count max response, cells fed with added oleic acid
How it was run: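 Drosophila S3 cells loaded with oleic acid (400 uM, as added) and compounds at several concentrations; lipid droplets imaged by 488-nm laser-scanning cytometry, 500–530 nm intensity and object ratio to cell channel. Percent activity normalized to 20 uM Triacsin C.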

[1] = measured here: lipid fluorescence (Fed channel) AC50, cells fed with added oleic acid
[2] = measured here: cell number channel AC50, cells fed with added oleic acid

SMILES	cell number change	AC50 [1]	AC50 [2]
Cc1cccc(Oc2ccc(S(=O)(=O)N3CCCCC3)cc2NC(=O)C2=COCCO2)c1	-11.4%		
Cc1nn(C)cc1C1C(C#N)=C(N)N(c2ccc(F)c([N+](=O)[O-])c2)C2=C1C(=O)CCC2 (stereo not given)	11.7%	1.84 µM [rising, partial curve, poor fit]	
O=C(O)CN1C(=O)/C(=C\c2cccc(OCc3ccc(Cl)cc3Cl)c2)SC1=S	-6.61%	0.116 µM [rising, full curve, poor fit]	
Cc1c(Br)cc(C(=O)N2CCCC2)c(C)c1C	-68.8%	18.4 µM [falling, partial curve]	23.1 µM [falling, partial curve, poor fit]
CCn1c(SCC(=O)c2cc(OC)ccc2OC)nnc1C1CC1	34.7%	8.2 µM [rising, partial curve]	6.51 µM [rising, partial curve, poor fit]
COc1ccccc1N1CCN(C(=O)CNC(=O)c2ccc(Cl)cc2Cl)CC1	18.7%		
CCOC(=O)CSc1nc2c(c(=O)n(C)c(=O)n2C)n1CCCc1ccccc1		4.11 µM [rising, partial curve]	6.51 µM [rising, partial curve]
Cc1ccc(-c2csc(NC(=O)Cc3cccs3)n2)cc1C	22.6%		
Nc1nc(Nc2cccc(F)c2)nc(NCc2ccco2)c1[N+](=O)[O-]	-5.3%	6.51 µM [rising, single point]	
COCCN(C)Cc1cn(-c2ccc(F)cc2F)nc1-c1ccccc1C	-22.1%		
CC1(C)C(=O)Nc2ccccc2N1C(=O)Cn1ncc(Cl)c(Cl)c1=O	-19.9%	29.1 µM [falling, single point]	
Cn1c(=O)cc(OCC(=O)N2CCCc3ccccc32)c2ccccc21	2.73%	0.82 µM [rising, full curve]	
CC(=O)c1ccc(N=C2SCCCN2C(=O)C2CCCC2)cc1	-38.1%	0.651 µM [falling, full curve, poor fit]	
CSCCC(C(=O)OCC(=O)c1ccc(C)c(C)c1)N1C(=O)c2ccccc2C1=O (stereo not given)	-23.7%	0.103 µM [falling, full curve]	0.184 µM [falling, full curve, poor fit]
COCCCNc1c2c(nc3nnnn13)CCCC2	-32.9%	29.1 µM [falling, single point]	9.2 µM [falling, partial curve]
COc1ccc(N2CC(C(=O)N3CCN(c4ccccc4OC)CC3)CC2=O)cc1 (stereo not given)	1.28%		
CN(C)c1ccc(N=Cc2nc(-c3ccccc3)oc2OC(=O)c2cccc(Br)c2)cc1	-1.57%	6.51 µM [rising, single point]	
Cc1nn(C2CCS(=O)(=O)C2)c(Cl)c1/C=C/C(=O)OCC(=O)Nc1ccccc1OC(F)F (stereo not given)	-14.9%	0.731 µM [rising, single point]	

SMILES	cell number change	AC50 [1]	AC50 [2]
O=C(O)CN=C(NS(=O)(=O)c1ccccc1)c1ccccc1	9.8%	3.26 µM [falling, partial curve]	
Cc1cc(=O)[nH]c2ccc(S(=O)(=O)NCc3ccccc3)cc12	22.2%	0.366 µM [falling, full curve]	
CC(C)OC(=O)c1ccc(N)cc1	12.3%	0.461 µM [falling, single point]	
Cc1ccccc1NC(=O)CSc1nnc(CNC(=O)c2ccc3c(c2)OCO3)n1C	23.1%	29.1 µM [rising, single point]	
O=C(O)/C=C/c1coc2ccccc2c1=O	14.5%	23.1 µM [rising, single point]	
Cc1ccc(C(=O)NCC(=O)OCc2c(F)cccc2Cl)cc1	33.5%		32.6 µM [rising, single point]
CCOc1ccc(NC(=O)Nc2ccc3c(c2)nnn3C)cc1		1.3 µM [rising, partial curve]	0.92 µM [rising, partial curve]
Cc1cc(N2CCC(C(=O)NC3CCCCC3)CC2)nc(-c2ccccc2)n1	-16.1%	20.6 µM [falling, partial curve]	
Cn1c(=O)n(Cc2ccccc2)c(=O)c2c1nc1n2CCS1	11.1%	0.517 µM [falling, full curve, poor fit]	0.411 µM [falling, single point]
CC1CCCN(C(=O)Cc2cn(Cc3cccc(Cl)c3)c3ccccc23)C1 (stereo not given)	38.3%	5.8 µM [rising, full curve]	18.4 µM [rising, partial curve, poor fit]
CCOC(=O)c1ccc(Nc2nc(C)nc3c2nnn3Cc2ccccc2)cc1	21.7%	10.3 µM [falling, partial curve]	
CCN(CC)CCn1c(N)nc2ccccc21	35.7%		
CCN(CC(=O)NCc1ccc(Cl)cc1)C(=O)CSCC(=O)Nc1cccc(C)c1	-23%	29.1 µM [falling, partial curve, poor fit]	
O=C(O)/C=C\C(=O)Nc1ccc(OCc2ccccc2)cc1	-4.09%		0.00461 µM [rising, full curve, poor fit]
COc1ccc(N2C(=O)N3[C@H](c4ccc(Cl)cc4)[C@@H]4C(=O)N(C5CCCCC5)C(=O)[C@@H]4[C@]3(Cc3ccc(Cl)cc3)C2=O)cc1	49.2%	29.1 µM [falling, single point]	13 µM [rising, partial curve, poor fit]
COC(=O)c1ccc(C(=O)OC)c(NC(=O)CN2CCC(C)CC2)c1	78.5%		29.1 µM [rising, single point]
Cc1cc(C)cc(-n2ncc3c2CCCC3NC(=O)C2CCC2)c1 (stereo not given)	-18.1%	0.58 µM [falling, single point]	0.517 µM [falling, full curve]
COc1ccc(-c2c(C(F)(F)F)oc3c(CN4CCN(C)CC4)c(O)ccc3c2=O)cc1	-58.9%	0.092 µM [falling, partial curve, poor fit]	25.9 µM [falling, partial curve, poor fit]

Two entries from above in a different format:
CC1CCCN(C(=O)Cc2cn(Cc3cccc(Cl)c3)c3ccccc23)C1 (stereo not given)
  cell number change: 38.3%; AC50 [1]: 5.8 µM [rising, full curve]; AC50 [2]: 18.4 µM [rising, partial curve, poor fit]
CCOC(=O)c1ccc(Nc2nc(C)nc3c2nnn3Cc2ccccc2)cc1
  cell number change: 21.7%; AC50 [1]: 10.3 µM [falling, partial curve]
